Results reported in article doi:10.1101/2022.03.29.486232.

T1: leucine-rich glioma-inactivated 1 (LGI1), native, from mouse brain (mouse (endogenous in mouse brain)) (UniProt Q9JIA1)
T1 sequence: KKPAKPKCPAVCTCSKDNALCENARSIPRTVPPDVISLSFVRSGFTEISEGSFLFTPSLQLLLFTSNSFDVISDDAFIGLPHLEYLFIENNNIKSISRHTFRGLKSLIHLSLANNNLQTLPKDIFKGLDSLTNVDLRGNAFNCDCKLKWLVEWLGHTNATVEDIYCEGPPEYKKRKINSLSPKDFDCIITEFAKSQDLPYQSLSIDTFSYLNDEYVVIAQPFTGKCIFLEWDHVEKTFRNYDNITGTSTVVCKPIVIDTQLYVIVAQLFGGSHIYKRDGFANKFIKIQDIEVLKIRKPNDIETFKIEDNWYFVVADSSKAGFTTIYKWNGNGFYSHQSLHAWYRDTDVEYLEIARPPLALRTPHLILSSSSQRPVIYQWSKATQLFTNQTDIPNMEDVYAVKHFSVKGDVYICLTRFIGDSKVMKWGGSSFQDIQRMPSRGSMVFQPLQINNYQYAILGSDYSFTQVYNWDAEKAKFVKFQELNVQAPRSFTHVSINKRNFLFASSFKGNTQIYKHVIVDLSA

B1: Kv beta subunit KCAB1 (protein, UniProt P63143 1-401)
chain: MQVSIACTEHNLKSRNGEDRLLSKQSSNAPNVVNAARAKFRTVAIIARSLGTFTPQHHISLKESTAKQTGMKYRNLGKSGLRVSCLGLGTWVTFGGQISDEVAERLMTIAYESGVNLFDTAEVYAAGKAEVILGSIIKKKGWRRSSLVITTKLYWGGKAETERGLSRKHIIEGLKGSLQRLQLEYVDVVFANRPDSNTPMEEIVRAMTHVINQGMAMYWGTSRWSAMEIMEAYSVARQFNMIPPVCEQAEYHLFQREKVEVQLPELYHKIGVGAMTWSPLACGIISGKYGNGVPESSRASLKCYQWLKERIVSEEGRKQQNKLKDLSPIAERLGCTLPQLAVAWCLRNEGVSSVLLGSSTPEQLIENLGAIQVLPKMTSHVVNEIDNILRNKPYSKKDYRS
B2: Kv beta subunit KCAB2 (protein, UniProt P62482 1-367)
chain: MYPESTTGSPARLSLRQTGSPGMIYSTRYGSPKRQLQFYRNLGKSGLRVSCLGLGTWVTFGGQITDEMAEHLMTLAYDNGINLFDTAEVYAAGKAEVVLGNIIKKKGWRRSSLVITTKIFWGGKAETERGLSRKHIIEGLKASLERLQLEYVDVVFANRPDPNTPMEETVRAMTHVINQGMAMYWGTSRWSSMEIMEAYSVARQFNLIPPICEQAEYHMFQREKVEVQLPELFHKIGVGAMTWSPLACGIVSGKYDSGIPPYSRASLKGYQWLKDKILSEEGRRQQAKLKELQAIAERLGCTLPQLAIAWCLRNEGVSSVLLGASNAEQLMENIGAIQVLPKLSSSIVHEIDSILGNKPYSKKDYRS
B3: MPP2 (protein, UniProt Q9WV34 1-552)
chain: MPVAATNSESAMQQVLDNLGSLPNATGAAELDLIFLRGIMESPIVRSLAKAHERLEETKLEAVRDNNLELVQEILRDLAELAEQSSTAAELARILQEPHFQSLLETHDSVASKTYETPPPSPGLDPTFSNQPVPPDAVRMVGIRKTAGEHLGVTFRVEGGELVIARILHGGMVAQQGLLHVGDIIKEVNGQPVGSDPRALQELLRSASGSVILKILPSYQEPHLPRQVFVKCHFDYDPARDSLSPCKEAGLRFNAGDLLQIVNQDDANWWQACHVEGGSAGLIPSQLLEEKRKAFVKRDLELTPTSGTLCGSLSGKKKKRMMYLTTKNAEFDRHELLIYEEVARMPPFRRKTLVLIGAQGVGRRSLKNKLILWDPDRYGTTVPYTSRRPKDSEREGQGYSFVSRGEMEADIRAGRYLEHGEYEGNLYGTRIDSIRGVVASGKVCVLDVNPQAVKVLRTAEFVPYVVFIEAPDYETLRAMNRAALESGVSTKQLTEADLRRTVEESSRIQRGYGHYFDLSLVNSNLERTFRELQTAMEKLRTEPQWVPVSWVY
B4: CASK (protein, UniProt O70589 1-926)
chain: MADDDVLFEDVYELCEVIGKGPFSVVRRCINRETGQQFAVKIVDVAKFTSSPGLSTEDLKREASICHMLKHPHIVELLETYSSDGMLYMVFEFMDGADLCFEIVKRADAGFVYSEAVASHYMRQILEALRYCHDNNIIHRDVKPHCVLLASKENSAPVKLGGFGVAIQLGESGLVAGGRVGTPHFMAPEVVKREPYGKPVDVWGCGVILFILLSGCLPFYGTKERLFEGIIKGKYKMNPRQWSHISESAKDLVRRMLMLDPAERITVYEALNHPWLKERDRYAYKIHLPETVEQLRKFNARRKLKGAVLAAVSSHKFNSFYGDPPEELPDFSEDPTSSGLLAAERAVSQVLDSLEEIHALTDCSEKDLDFLHSVFQDQHLHTLLDLYDKINTKSSPQIRNPPSDAVQRAKEVLEEISCYPENNDAKELKRILTQPHFMALLQTHDVVAHEVYSDEALRVTPPPTSPYLNGDSPESANGDMDMENVTRVRLVQFQKNTDEPMGITLKMNELNHCIVARIMHGGMIHRQGTLHVGDEIREINGISVANQTVEQLQKMLREMRGSITFKIVPSYRTQSSSCERDSPSTSRQSPANGHSSTNNSVSDLPSTTQPKGRQIYVRAQFEYDPAKDDLIPCKEAGIRFRVGDIIQIISKDDHNWWQGKLENSKNGTAGLIPSPELQEWRVACIAMEKTKQEQQASCTWFGKKKKQYKDKYLAKHNAVFDQLDLVTYEEVVKLPAFKRKTLVLLGAHGVGRRHIKNTLITKHPDRFAYPIPHTTRPPKKDEENGKNYYFVSHDQMMQDISNNEYLEYGSHEDAMYGTKLETIRKIHEQGLIAILDVEPQALKVLRTAEFAPFVVFIAAPTITPGLNEDESLQRLQKESDVLQRTYAHYFDLTIINNEIDETIRHLEEAVELVCTAPQWVPVSWVY

Molecular target: T1, leucine-rich glioma-inactivated 1 (LGI1), native, from mouse brain (mouse (endogenous in mouse brain))
Assay: affinity purification with mass spectrometry

binding	Binder
binds	B1
binds	B2
binds	B3
binds	B4

No constants are given. Whether binding was seen depends on the method and setting. Binding seen in cells or lysates may run through a third protein. A yes stands for co-enrichment or nearness to the bait. Other partners may have been found.
